{"sequences": {"note": "Amino acid sequences for entries named in this document (tags omitted). A change or cut given only in a name is not applied to a line headed by its entry.", "UniProt P23497": "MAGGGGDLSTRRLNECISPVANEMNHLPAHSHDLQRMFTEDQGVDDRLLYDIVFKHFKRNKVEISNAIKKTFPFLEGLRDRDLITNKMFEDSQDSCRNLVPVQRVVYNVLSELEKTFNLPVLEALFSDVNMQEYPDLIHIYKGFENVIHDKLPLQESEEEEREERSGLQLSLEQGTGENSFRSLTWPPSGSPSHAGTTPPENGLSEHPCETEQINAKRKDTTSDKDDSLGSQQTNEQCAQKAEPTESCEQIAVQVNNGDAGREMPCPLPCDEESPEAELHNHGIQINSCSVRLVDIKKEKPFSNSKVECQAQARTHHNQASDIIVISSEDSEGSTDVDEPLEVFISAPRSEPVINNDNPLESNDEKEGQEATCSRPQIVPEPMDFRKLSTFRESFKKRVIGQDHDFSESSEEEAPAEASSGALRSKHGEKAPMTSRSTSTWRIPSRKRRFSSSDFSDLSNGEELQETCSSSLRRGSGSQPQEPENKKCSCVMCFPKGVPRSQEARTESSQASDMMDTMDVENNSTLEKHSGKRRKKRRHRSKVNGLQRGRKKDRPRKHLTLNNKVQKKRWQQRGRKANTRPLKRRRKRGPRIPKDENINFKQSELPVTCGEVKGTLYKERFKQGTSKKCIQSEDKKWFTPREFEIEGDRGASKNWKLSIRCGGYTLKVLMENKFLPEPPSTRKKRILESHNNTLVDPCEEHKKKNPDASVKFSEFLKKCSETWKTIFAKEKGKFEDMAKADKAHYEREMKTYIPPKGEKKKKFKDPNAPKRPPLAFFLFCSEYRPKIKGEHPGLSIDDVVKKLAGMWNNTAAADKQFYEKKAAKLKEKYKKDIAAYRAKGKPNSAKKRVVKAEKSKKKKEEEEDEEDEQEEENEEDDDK", "UniProt O60749": "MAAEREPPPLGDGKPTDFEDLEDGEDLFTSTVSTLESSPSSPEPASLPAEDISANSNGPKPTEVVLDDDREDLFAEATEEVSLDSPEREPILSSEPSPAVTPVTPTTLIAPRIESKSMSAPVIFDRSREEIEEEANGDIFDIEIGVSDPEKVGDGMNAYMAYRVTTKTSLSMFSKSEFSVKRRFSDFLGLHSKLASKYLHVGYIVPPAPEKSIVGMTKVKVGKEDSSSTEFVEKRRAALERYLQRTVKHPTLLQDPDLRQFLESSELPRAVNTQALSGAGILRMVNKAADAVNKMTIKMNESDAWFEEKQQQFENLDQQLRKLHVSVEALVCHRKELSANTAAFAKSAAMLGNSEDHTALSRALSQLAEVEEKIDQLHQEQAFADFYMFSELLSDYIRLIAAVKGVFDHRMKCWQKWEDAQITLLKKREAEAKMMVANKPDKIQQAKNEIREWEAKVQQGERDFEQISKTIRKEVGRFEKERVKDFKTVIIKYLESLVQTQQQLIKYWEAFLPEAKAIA", "UniProt Q6PI26": "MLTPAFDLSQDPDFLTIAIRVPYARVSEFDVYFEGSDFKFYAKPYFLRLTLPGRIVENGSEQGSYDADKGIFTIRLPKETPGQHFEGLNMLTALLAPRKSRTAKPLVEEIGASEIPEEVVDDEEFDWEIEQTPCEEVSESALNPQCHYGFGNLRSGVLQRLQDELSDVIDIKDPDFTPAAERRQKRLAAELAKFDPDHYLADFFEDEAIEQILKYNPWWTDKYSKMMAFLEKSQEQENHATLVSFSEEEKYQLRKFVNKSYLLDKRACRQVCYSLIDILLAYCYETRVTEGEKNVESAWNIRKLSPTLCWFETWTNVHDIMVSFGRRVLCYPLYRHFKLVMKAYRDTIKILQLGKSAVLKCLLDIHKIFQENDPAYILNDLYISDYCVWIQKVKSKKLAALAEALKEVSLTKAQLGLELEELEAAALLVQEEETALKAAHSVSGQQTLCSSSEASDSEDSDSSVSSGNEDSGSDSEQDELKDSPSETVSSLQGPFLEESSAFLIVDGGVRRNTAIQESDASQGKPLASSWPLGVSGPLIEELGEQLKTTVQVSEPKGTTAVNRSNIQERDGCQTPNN", "UniProt O00193": "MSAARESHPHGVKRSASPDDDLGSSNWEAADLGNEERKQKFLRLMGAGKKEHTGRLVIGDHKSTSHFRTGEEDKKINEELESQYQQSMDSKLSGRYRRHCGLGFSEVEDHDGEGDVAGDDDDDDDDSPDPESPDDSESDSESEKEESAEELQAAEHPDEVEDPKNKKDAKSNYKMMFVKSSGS", "UniProt A0MZ66, whole entry": "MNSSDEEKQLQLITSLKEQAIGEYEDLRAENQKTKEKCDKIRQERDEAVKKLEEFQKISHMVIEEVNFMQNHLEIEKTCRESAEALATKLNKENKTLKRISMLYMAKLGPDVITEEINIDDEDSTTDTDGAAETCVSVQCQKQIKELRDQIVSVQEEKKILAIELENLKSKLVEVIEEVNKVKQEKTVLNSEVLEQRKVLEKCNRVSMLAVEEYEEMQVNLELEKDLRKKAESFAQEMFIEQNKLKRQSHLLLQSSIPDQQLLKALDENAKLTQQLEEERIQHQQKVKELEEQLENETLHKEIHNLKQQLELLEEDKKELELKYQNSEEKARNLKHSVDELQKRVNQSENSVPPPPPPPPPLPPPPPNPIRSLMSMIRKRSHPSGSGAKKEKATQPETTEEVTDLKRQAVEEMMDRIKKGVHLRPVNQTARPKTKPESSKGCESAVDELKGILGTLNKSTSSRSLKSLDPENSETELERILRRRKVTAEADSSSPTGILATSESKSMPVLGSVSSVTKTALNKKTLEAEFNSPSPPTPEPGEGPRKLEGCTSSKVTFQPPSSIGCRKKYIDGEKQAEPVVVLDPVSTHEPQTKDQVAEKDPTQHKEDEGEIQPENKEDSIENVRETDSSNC", "UniProt Q13485": "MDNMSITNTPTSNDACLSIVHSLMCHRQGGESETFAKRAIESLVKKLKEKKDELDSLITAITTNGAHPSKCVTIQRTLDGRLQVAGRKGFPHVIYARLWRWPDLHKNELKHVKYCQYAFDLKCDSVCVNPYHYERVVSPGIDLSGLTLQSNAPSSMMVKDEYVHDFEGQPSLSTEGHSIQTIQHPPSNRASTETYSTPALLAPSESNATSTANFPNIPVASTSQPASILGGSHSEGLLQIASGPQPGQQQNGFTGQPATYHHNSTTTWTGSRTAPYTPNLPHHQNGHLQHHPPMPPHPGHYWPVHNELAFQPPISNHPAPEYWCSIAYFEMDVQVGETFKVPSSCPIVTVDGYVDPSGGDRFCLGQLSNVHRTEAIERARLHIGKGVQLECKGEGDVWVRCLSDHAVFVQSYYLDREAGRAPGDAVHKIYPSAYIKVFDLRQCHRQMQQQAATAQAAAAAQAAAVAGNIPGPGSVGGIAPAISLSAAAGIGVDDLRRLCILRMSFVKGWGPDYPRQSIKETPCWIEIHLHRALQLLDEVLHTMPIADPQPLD", "UniProt Q9UQ13": "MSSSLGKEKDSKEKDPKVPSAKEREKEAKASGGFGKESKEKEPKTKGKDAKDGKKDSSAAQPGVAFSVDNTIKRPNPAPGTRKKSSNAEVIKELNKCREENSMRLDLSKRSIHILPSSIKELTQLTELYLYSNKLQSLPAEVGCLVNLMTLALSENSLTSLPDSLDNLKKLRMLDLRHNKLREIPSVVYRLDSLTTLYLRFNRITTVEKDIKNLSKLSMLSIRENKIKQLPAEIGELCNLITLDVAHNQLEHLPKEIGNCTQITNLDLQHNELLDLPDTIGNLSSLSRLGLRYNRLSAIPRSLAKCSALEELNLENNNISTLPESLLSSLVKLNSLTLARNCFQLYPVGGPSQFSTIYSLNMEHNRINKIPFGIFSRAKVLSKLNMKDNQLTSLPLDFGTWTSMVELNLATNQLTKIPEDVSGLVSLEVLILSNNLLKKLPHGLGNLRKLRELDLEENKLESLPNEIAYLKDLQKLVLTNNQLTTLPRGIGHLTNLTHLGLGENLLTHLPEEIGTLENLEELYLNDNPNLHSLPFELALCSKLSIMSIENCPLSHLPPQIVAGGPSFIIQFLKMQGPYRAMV", "UniProt P62314, whole entry": "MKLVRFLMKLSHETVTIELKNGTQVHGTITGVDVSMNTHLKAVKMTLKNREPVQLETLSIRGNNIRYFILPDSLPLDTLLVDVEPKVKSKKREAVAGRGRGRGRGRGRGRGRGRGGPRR"}, "source": "the supplement of paper PMC7666118", "note": "The list shows a part of the results.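 Rule for the calls: active = dose-dependent thermal stabilisation significant by F-test of dose-response against flat model at 10% FDR; inactive = not significant.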"}
{"compound": "Nc1nc2c(ncn2[C@@H]2O[C@H](COP(=O)(O)OP(=O)(O)OP(=O)(O)O)[C@@H](O)[C@H]2O)c(=O)[nH]1", "assay": "dose-dependent thermal stabilisation call (2D-TPP, DLPTP, 10% FDR) (binary (1 = stabilised)); higher = stabilised by the compound", "settings": "system: Jurkat gel-filtered lysate; concentration range 1-500 µM"}
{"target": "SP100 (UniProt P23497)", "dose-dependent thermal stabilisation call": "inactive: 0"}
{"target": "SNX2 (UniProt O60749)", "dose-dependent thermal stabilisation call": "inactive: 0"}
{"target": "SHQ1 (UniProt Q6PI26)", "dose-dependent thermal stabilisation call": "inactive: 0"}
{"target": "SMAP (UniProt O00193)", "dose-dependent thermal stabilisation call": "inactive: 0"}
{"target": "SHTN1 (UniProt A0MZ66)", "dose-dependent thermal stabilisation call": "inactive: 0"}
{"target": "SMAD4 (UniProt Q13485)", "dose-dependent thermal stabilisation call": "inactive: 0"}
{"target": "SHOC2 (UniProt Q9UQ13)", "dose-dependent thermal stabilisation call": "inactive: 0"}
{"target": "SNRPD1 (UniProt P62314)", "dose-dependent thermal stabilisation call": "inactive: 0"}
